Measurements: patent US9365614B2, “IAP BIR domain binding compounds” (priority 2006, dated 2016)
Entries after “also recorded” stand apart in the source; their conditions may differ. For at least one compound, name, drawing or mass did not settle the structure.

Assays:
MDA-MB-231 cells = experiment: Hollow fiber in vivo model, MDA-MB-231; set-up: species or system Nu/Nu CD-1 male mice; settings: 3 mg/kg, IV bolus, 4 consecutive days
[1] = test system: SKOV-3 human ovarian tumor cells; experiment: SKOV-3 human ovarian cancer cell line xenograft study; format: in vivo, Female CD-1 nude mice
[2] = test system: MDA-MB-231 human mammary tumor cells; experiment: MDA-MB-231 human mammary cancer cell line xenograft study; format: in vivo, Female CD-1 nude mice; settings: 1 mg/kg, 5 on/2 off

Q: For CN[C@@H](C)C(=O)N[C@H](C(=O)N1C[C@@H](NC(=O)c2ccc(C(=O)N[C@H]3C[C@@H](C(=O)N[C@@H]4CCCc5ccccc54)N(C(=O)[C@@H](NC(=O)[C@H](C)NC)C(C)(C)C)C3)cc2)C[C@H]1C(=O)N[C@@H]1CCCc2ccccc21)C(C)(C)C [Compound 3], which “cell growth in hollow fibers compared to 20% HPCD control” value (MDA-MB-231 cells) is on record?
A: Complete suppression of cell growth

Q: What about the tumor response ([1]; 0.1 mg/kg, 5 days on 2 days off) of the same compound?
A: Tumour stasis

Q: And the tumor response ([1]; 0.3 mg/kg, 5 on/2 off)?
A: tumor stasis

Q: What about the tumor response ([1]; 1 mg/kg, 5 on/2 off) of the same compound?
A: Tumor regression; also recorded: tumour regression

Q: What about the tumor response [2] of the same compound?
A: Tumor regression; also recorded: tumour regression
